# From PubChem BioAssay AID1347426 (Functional Genomics Laboratory (NCATS/FGL), 2020)
# Screen size: about 31,000 sequences; about 1,400 (4.5%) were called active.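 How the source made its calls: active means median seed-adjusted z-score above 1 or below -1; inactive means the rest.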 The list shows a part of the results.
# Test: Novel Modifiers of Survival Motor Neuron (SMN) Protein: Gene Identification via Genome-wide siRNA Screen;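 further: luminescence tracks full-length SMN protein made from the SMN2 reporter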
# Settings: HEK293T SMN2-luciferase reporter, siRNA knockdown, 72 h; actives lie on both sides
# In short: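 Luciferase signal, proportional to full-length SMN made from an SMN2 cDNA reporter in stable HEK293T cells, was read 72 h after siRNA reverse transfection. Values were expressed as MAD scores after non-targeting-control normalization and log10 conversion; seed analysis flagged off-targets.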
row,Sequence,median seed-adjusted z-score
1,CAAUGACUGUAGCAUUCAATT against PTPN18,inactive: -0.206
2,GUUUGUCUGUCAUUACUCATT against RNMT,inactive: -0.281
3,CCAGAACCUCAUUGACUUUTT against TSPAN17,inactive: -0.0774
4,CCUUCAGCAUGAUCAAAUUTT against ZNF260,inactive: -0.682
5,GGACACUUCUUGGAGAUUUTT against FOXE3,inactive: -0.451
6,GCUGUUCGCUGAAGGAGGATT against HOXD9,inactive: -0.123
7,GCACGGUUCAAGAAAUUGATT against ISOC1,inactive: 0.104
8,GGCUUCAGCUGAAUACCAATT against MYLIP,inactive: 0.652
9,UGACCAGGCACUACCGUAATT against KLF4,inactive: 0.883
10,GGCUCAGCAGAUUACCACATT against TAAR5,inactive: 0.573
11,GGAACAUCGAAAUCGUGUATT against DDX6,active: 1.12
12,GCUUCGAGCUGAUGUGACATT against LGTN,inactive: 0.491
13,CCGUAAUUGUGGAACAUGUTT against ELF1,inactive: 0.0269
14,GCCUCUUGCUAGGCAUAGCTT against CLDN15,inactive: 0.973
15,GGAUCUUCGUGGAACGGAUTT against PDE1B,inactive: -0.384
16,CCCACGAUCUGAAUCAACATT against RNF12,inactive: 0.29
17,GGUUAUACUCUGGAUGUAATT against HNRNPR,inactive: 0.308
18,GGAAAGAAGGGAAUGAGUUTT against ZMAT3,inactive: 0.979
19,CCCUGACAGAGAUAGAGCATT against RORC,inactive: -0.243
20,GACUCUUACCGAAGGGUUATT against MATR3,inactive: -0.259
21,GGCUGUGCAUAAACGAGAATT against GTF2E1,active: 1.76
22,AUAUGAACAUGGGUAUGAATT against ZIC2,inactive: -0.162
23,GCUCACAACUUAUUAAACATT against ZNF566,inactive: 0.0702

row,Sequence,median seed-adjusted z-score
1,GAACAACUGUGCAUUCUUATT against RAP1B,inactive: -0.0262
2,CAACGAUACCCAGAUCAAATT against CDC45L,inactive: -0.599
3,GAAGAUCAGUAUAUGAAAATT against BLVRA,inactive: 0.212
4,CUUACCUGCUUUUCCAUUATT against KRT34,inactive: 0.124
5,AGACUGUCGUGGGCUUGUATT against MYH7,inactive: 0.659
6,UGAUCAGUCGCAUCGAAUATT against CSNK1D,inactive: 0.202
7,GCACAAGUGCUGAGCCAGATT against LENG9,inactive: 0.607
8,GCUACAAGGAUUUCCAUUUTT against SNRPB2,inactive: -0.967
9,CUCAAGCAUUUGUAUCGAATT against PLD5,inactive: -0.0377
10,CUAAGCUUCUGGUACAGAATT against CA14,inactive: -0.308
11,GGGCAUUUUAGUCAAGAAATT against ZNF383,inactive: -0.196
12,GGACCUUCUGAGUACCAGATT against COPS5,inactive: -0.124
13,GCAAUGGAGUGACUAAUCUTT against RFXDC2,inactive: 0.724
14,AGAUGUACCUGUUCGUGUATT against DNASE1L2,inactive: -0.228
15,GAACUUUGCCGGUUCUCAATT against PET112L,inactive: 0.235
16,GUAUAGGGCCUGUAAGUUUTT against LANCL1,inactive: 0
17,CAGCUUCAGUCAGCAGUUATT against FOXO4,inactive: -0.0576
18,CAACCAACCUGCAUCUAGATT against TRIM33,inactive: 0.316
19,GGAACUGUCUAGUAUCUUATT against IL6ST,inactive: -0.518
20,ACAAGUUGCCCAACACCAATT against HOXB4,inactive: 0.149
21,GCUUUAGACCCACUGCUAATT against STK24,inactive: 0.0531
22,GAGCGAAUAUUGGUGUAUUTT against ATP6V0A2,inactive: 0.236
23,AAGACAGCCUUGUAGAUGATT against TXNDC13,inactive: 0.365

# Copied from the list.
# median seed-adjusted z-score, CAAUGACUGUAGCAUUCAATT against PTPN18 is entered as inactive: -0.206
# median seed-adjusted z-score, ACAAGUUGCCCAACACCAATT against HOXB4 is entered as inactive: 0.149
# median seed-adjusted z-score, CCCUGACAGAGAUAGAGCATT against RORC is entered as inactive: -0.243

# The list goes on:

row,Sequence,median seed-adjusted z-score
1,GAUCCAACAGGAAAGGUGATT against IGHMBP2,inactive: -0.271
2,GGUCAAAUCAGCAAAGGUUTT against RNF25,inactive: -0.0826
3,GGUCUUCUGUGGACAUGUATT against BZW2,inactive: 0.0649
4,GGACCUUGCAGCAUUGUAATT against CCR4,inactive: 0
5,GAGCUAUUGAGAAUCGCAATT against ATP2B1,inactive: -0.459
6,GGACCUGAAGGACACCUAUTT against MYL5,inactive: 0.097
7,AAAUCUUCGUGAAAGAUCUTT against KLKBL4,inactive: -0.0132
8,GGUUCCUACGCAAAAGUCATT against TSSK2,inactive: -0.064
9,CUAGAACUCAUGCAACGAATT against DQX1,inactive: -0.297
10,GGAUGUUUGCCCAUACUGATT against HCRTR2,inactive: -0.236
11,GGAUCGAUAUCAAGAUAUUTT against AVEN,inactive: 0.184
12,GAAUCUGGACUAUUAGCGATT against OSBPL11,inactive: 0.535
13,GCGGAUCUCUGUAGACGAATT against MAPK9,inactive: 0.211
14,GGAGAGCAUGUUAAGCGAATT against SKIL,inactive: -0.868
15,CCAUGACCCUGAUAUCUCATT against CELSR2,inactive: -0.493
16,CCAACAUAAUGAUCGAAUUTT against ENPP4,inactive: 0
17,GCAGCGGCAUUUGGACAAATT against MKRN3,inactive: 0.402
18,GGACCUAAUUUGCUUCAAATT against HINT3,inactive: 0
19,GUCACGAAAUGACAGCAUUTT against MPL,inactive: -0.0153
20,CACUAUCUAUUCCACCUUUTT against HTR1A,inactive: 0
21,CCUGGAAAGUACUCUAGAATT against PGS1,active: 1.36
22,GCAGCGUGUUUUUCCGGAATT against RP2,inactive: -0.655
23,AAACCACACUAGGCAAAGATT against TAF9,inactive: 0.829
